The values below come from article PMC3577775.

No constants are given. Whether binding was seen depends on the method and setting. Binding seen in cells or lysates may run through a third protein. Some results given as binding are weak or reduced against the parent protein; the word gives no strength.

For test [1], the target named is Myc-tagged NOD2 (full-length, pCMV-Myc-NOD2) (human) (UniProt Q9HC29). In words: co-IP; HEK293T cells transfected 24 h, lysed in RIPA buffer (50 mM TrisCl, 150 mM NaCl, 1% NP-40, 0.5% deoxycholate, 0.1% SDS); anti-Myc or anti-GFP antibodies at 4°C, Protein G Sepharose, five washes, immunoblot; in some panels cells treated with gMDP (5 µg/mL, 4 h) or with scrambled siRNA or si-p62; for NOD2 with itself Myc-NOD2 was precipitated and the HA-tagged copy blotted.

Test [2] deals with GFP-conjugated p62 (full-length p62/SQSTM1 in pEGFP-C1) (human) (UniProt Q13501). Described as above.

For the substance “GFP-conjugated p62 (full-length p62/SQSTM1 in pEGFP-C1) (from UniProt Q13501-1 1-440)”, the binding entry in test [1] is on record as “binds”.

In the case of “Myc-tagged NOD2 (full-length, pCMV-Myc-NOD2) (from UniProt Q9HC29 1-1040)”, the binding result in test [2] and in test [1] was “binds” in each case.
